Article PMC11374660, “The novel family of Warbicin® compounds inhibits glucose uptake both in yeast and human cells and restrains cancer cell proliferation” (Frontiers in Oncology, 2024)
Results are given in words; binding and its absence hold for the method and conditions named. Binding seen in cells or lysates may run through a third protein. Tags and fused reporters may be left off the sequences shown.

Target: T1, Hxt7-NCitr (Hxt7 fused to the N-terminal part of Citrine) (S. cerevisiae) (UniProt P39004)
T1 sequence: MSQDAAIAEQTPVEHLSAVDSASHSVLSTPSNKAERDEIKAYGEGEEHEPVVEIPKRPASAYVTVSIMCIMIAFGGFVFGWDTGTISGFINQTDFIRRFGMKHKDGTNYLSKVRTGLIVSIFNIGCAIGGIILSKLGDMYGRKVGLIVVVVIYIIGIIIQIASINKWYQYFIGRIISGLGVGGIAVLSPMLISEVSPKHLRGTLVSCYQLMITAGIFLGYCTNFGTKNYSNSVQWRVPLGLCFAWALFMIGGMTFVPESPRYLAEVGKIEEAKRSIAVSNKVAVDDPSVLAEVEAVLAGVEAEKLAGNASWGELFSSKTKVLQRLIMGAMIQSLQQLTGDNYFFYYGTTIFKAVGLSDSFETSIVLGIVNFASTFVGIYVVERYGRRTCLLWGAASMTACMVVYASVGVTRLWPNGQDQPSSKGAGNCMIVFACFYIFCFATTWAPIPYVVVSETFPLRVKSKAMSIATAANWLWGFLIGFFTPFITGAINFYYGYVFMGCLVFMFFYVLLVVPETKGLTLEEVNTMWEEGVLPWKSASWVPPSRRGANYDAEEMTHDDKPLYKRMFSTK
Assay: split reporter; BiFC with split Citrine halves (NCitr 1-154, CCitr 155-236) in living yeast cells, confocal fluorescence microscopy; cells (pre)grown on YP with 325 mM glycerol and 430 mM ethanol

binding: no binding
Substance: C-terminal part of Citrine expressed freely in the cytosol (CCitr) (domain or fragment)
